Measured values reported in the supplement of paper PMC8728848.
The list shows a part of the results.

Tests used:
Experiment in all cases: glycan array binding signal (z-score within array); higher = stronger binding
Conditions in all cases: glycan notation: IUPAC condensed, linker removed
[1] = target: GalNAc(b1-3)Gal
Summary of the method: (§1)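 Glycan array data were curated from 3228 arrays in the Consortium for Functional Glycomics database and kept only where the protein sequence was available. Glycan names were converted to IUPAC-condensed notation, and columns mapping to the same glycan were averaged. The binding signal is a within-array Z-score, averaged across arrays of the same protein sequence at different concentrations or buffers and across linkers. Negative Z-scores can be read as non-binding.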

[2] = target: GalNAc(b1-3)Gal(a1-4)Gal(b1-4)GlcNAc
Summary of the method: as §1

[3] = target: GalNAc(b1-3)Gal(a1-4)Gal(b1-4)GlcNAc(b1-3)Gal(b1-4)Glc
Summary of the method: as §1

[4] = target: GalNAc(b1-3)Gal(a1-6)Gal(b1-4)Glc
Summary of the method: as §1

[5] = target: GalNAc(b1-3)GalNAc
Summary of the method: as §1

[6] = target: GalNAc(b1-3)GlcNAc
Summary of the method: as §1

[7] = target: GalNAc(b1-4)Gal(b1-4)Glc
Summary of the method: as §1

[8] = target: GalNAc(b1-4)GlcNAc
Summary of the method: as §1

[9] = target: GalNAc(b1-4)GlcNAc(b1-2)Man
Summary of the method: as §1

[10] = target: GalNAc(b1-4)GlcNAc(b1-2)Man(a1-3)[GalNAc(b1-4)GlcNAc(b1-2)Man(a1-6)]Man(b1-4)GlcNAc(b1-4)GlcNAc
Summary of the method: as §1

[11] = target: GalNAc(b1-4)GlcNAc(b1-3)GalNAc(b1-4)GlcNAc
Summary of the method: as §1

[12] = target: GalNAc(b1-4)GlcNAc6S
Summary of the method: as §1

[13] = target: GalNAc(b1-6)GalNAc
Summary of the method: as §1

[14] = target: GalNAc3S(b1-4)GlcNAc
Summary of the method: as §1

[15] = target: GalNAc3S(b1-4)GlcNAc3S
Summary of the method: as §1

[16] = target: GalNAc3S(b1-4)[Fuc(a1-3)]GlcNAc
Summary of the method: as §1

[17] = target: GalNAc4S6S(b1-4)GlcNAc
Summary of the method: as §1

[18] = target: GalNAc6S(b1-4)GlcNAc
Summary of the method: as §1

[19] = target: Glc(a1-4)Glc
Summary of the method: as §1

[20] = target: Glc(a1-4)Glc(a1-4)Glc(a1-4)Glc
Summary of the method: as §1

[21] = target: Glc(a1-6)Glc(a1-6)Glc
Summary of the method: as §1

[22] = target: Glc(a1-6)Glc(a1-6)Glc(a1-6)Glc
Summary of the method: as §1

[23] = target: Glc(b1-4)Glc
Summary of the method: as §1

[24] = target: Glc(b1-6)Glc
Summary of the method: as §1

[25] = target: GlcA(b1-3)Gal
Summary of the method: as §1

[26] = target: GlcA(b1-3)GlcNAc
Summary of the method: as §1

[27] = target: GlcA(b1-6)Gal
Summary of the method: as §1

[28] = target: GlcA3S(b1-3)Gal(b1-4)GlcNAc(b1-2)Man
Summary of the method: as §1

[29] = target: GlcA3S(b1-3)Gal(b1-4)GlcNAc(b1-3)Gal(b1-4)Glc
Summary of the method: as §1

[30] = target: GlcNAc(a1-3)Gal(b1-4)GlcNAc
Summary of the method: as §1

[31] = target: GlcNAc(a1-4)Gal(b1-3)GlcNAc
Summary of the method: as §1

[32] = target: GlcNAc(a1-4)Gal(b1-4)GalNAc
Summary of the method: as §1

[33] = target: GlcNAc(a1-4)Gal(b1-4)GlcNAc
Summary of the method: as §1

[34] = target: GlcNAc(a1-4)Gal(b1-4)GlcNAc(b1-3)Gal(b1-4)Glc
Summary of the method: as §1

[35] = target: GlcNAc(a1-4)Gal(b1-4)GlcNAc(b1-3)Gal(b1-4)GlcNAc
Summary of the method: as §1

[36] = target: GlcNAc(a1-4)Gal(b1-4)GlcNAc(b1-3)Gal(b1-4)GlcNAc(b1-3)Gal(b1-4)GlcNAc
Summary of the method: as §1

[37] = target: GlcNAc(a1-4)Gal(b1-4)GlcNAc(b1-3)Gal(b1-4)[Fuc(a1-3)]GlcNAc(b1-3)Gal(b1-4)[Fuc(a1-3)]GlcNAc
Summary of the method: as §1

[38] = target: GlcNAc(a1-6)Gal(b1-4)GlcNAc
Summary of the method: as §1

B1: truncCC1G-10077 (Coprinopsis cinerea) (protein)
chain: MHHHHHHHHPLPSPGPGWVLIQNGGTGKFLCSTPSGDIGTADGPETVYDYSVQWRFIQREYTGVYHVVNRATGAYLRQIGTSMPSIGLAEENDDELKDWWMLETYDNSEIGLASIISRWTGNVLDHYGGVSVQALDNNTENSYRSWAIIPARDWLTSFSLVNGQGGLCLAAQYAREETRLSTTANVNDFHAQWVFRKPSGSSGYTIQNKYNNHYVGGTSARWELVVCCNKYFGIRNTSTQKYLAIEDGQVTFQDQDMTDRKQCWELCSGRATDTSGNDYDLIYMDDDLLEVMIPWVGDKQGDLKHYIEKRATKKPPKDKGGWQLPAAGLIKKPKFNDIRQLLQELIEQWEWDVVNEEREQIQTLVSIDEAEARRLLGRRPHPDIVAAYQRSRSSTLFRIDRQGYFNIAGDRYVNIQGQYGDDSYFHIALPVGVRFGREQIRRFLRDSLDRSTSVTITPTTCKPPSGGPDYNRDPDSDGDNSWIKWTIAVVGTSAIKHSEL
- glycan array binding signal (z-score) [1]: -0.908
- glycan array binding signal (z-score) [2]: -0.242
- glycan array binding signal (z-score) [3]: -0.506
- glycan array binding signal (z-score) [4]: -1.01
- glycan array binding signal (z-score) [5]: -1.5
- glycan array binding signal (z-score) [6]: -1.34
- glycan array binding signal (z-score) [7]: 0.016
- glycan array binding signal (z-score) [8]: -1.27
- glycan array binding signal (z-score) [9]: -1.05
- glycan array binding signal (z-score) [10]: 1
- glycan array binding signal (z-score) [11]: -0.33
- glycan array binding signal (z-score) [12]: -0.894
- glycan array binding signal (z-score) [13]: -0.859
- glycan array binding signal (z-score) [14]: -0.778
- glycan array binding signal (z-score) [15]: -0.736
- glycan array binding signal (z-score) [16]: 0.195
- glycan array binding signal (z-score) [17]: -0.763
- glycan array binding signal (z-score) [18]: -0.733
- glycan array binding signal (z-score) [19]: -0.018
- glycan array binding signal (z-score) [20]: 0.643
- glycan array binding signal (z-score) [21]: 0.83
- glycan array binding signal (z-score) [22]: 0.056
- glycan array binding signal (z-score) [23]: 0.542
- glycan array binding signal (z-score) [24]: -0.333
- glycan array binding signal (z-score) [25]: -0.553
- glycan array binding signal (z-score) [26]: -0.805
- glycan array binding signal (z-score) [27]: 4.61
- glycan array binding signal (z-score) [28]: -0.28
- glycan array binding signal (z-score) [29]: 0.341
- glycan array binding signal (z-score) [30]: -0.945
- glycan array binding signal (z-score) [31]: -0.562
- glycan array binding signal (z-score) [32]: 0.453
- glycan array binding signal (z-score) [33]: -0.553
- glycan array binding signal (z-score) [34]: -0.668
- glycan array binding signal (z-score) [35]: -0.818
- glycan array binding signal (z-score) [36]: -0.028
- glycan array binding signal (z-score) [37]: 0.607
- glycan array binding signal (z-score) [38]: -1.04
